# Primary screen of a compound library

Amino acid sequences for entries named in this document (tags omitted). Residues count along the entry.
UniProt Q8IDJ8, 1-583: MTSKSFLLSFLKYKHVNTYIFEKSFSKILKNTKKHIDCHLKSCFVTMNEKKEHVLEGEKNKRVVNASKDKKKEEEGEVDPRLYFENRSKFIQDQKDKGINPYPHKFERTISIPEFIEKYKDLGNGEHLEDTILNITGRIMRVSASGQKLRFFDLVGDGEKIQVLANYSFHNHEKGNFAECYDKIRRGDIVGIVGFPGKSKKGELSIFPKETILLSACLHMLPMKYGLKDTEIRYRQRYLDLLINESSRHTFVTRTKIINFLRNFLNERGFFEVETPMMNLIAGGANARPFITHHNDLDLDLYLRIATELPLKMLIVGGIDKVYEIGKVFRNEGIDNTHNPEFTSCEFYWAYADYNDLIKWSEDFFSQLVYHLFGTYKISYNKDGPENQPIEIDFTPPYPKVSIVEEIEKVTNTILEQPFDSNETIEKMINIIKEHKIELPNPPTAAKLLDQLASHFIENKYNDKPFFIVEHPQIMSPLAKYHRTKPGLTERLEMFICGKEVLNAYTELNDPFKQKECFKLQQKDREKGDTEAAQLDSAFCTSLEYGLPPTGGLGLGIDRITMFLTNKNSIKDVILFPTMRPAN
UniProt P9WFT3, whole entry: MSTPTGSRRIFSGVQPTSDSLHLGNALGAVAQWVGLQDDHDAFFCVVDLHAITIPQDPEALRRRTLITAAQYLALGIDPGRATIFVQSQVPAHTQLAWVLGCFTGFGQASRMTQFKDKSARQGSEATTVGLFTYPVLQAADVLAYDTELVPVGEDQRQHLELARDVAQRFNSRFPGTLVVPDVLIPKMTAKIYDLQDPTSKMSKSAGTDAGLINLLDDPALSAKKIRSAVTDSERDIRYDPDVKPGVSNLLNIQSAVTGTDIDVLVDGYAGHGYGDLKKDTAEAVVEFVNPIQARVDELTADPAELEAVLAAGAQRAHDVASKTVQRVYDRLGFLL
UniProt P9WPC5, whole entry: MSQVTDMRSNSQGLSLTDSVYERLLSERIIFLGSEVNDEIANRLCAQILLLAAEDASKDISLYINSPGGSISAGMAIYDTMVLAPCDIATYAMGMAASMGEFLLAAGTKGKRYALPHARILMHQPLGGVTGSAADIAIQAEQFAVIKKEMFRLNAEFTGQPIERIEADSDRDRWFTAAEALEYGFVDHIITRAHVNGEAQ
UniProt P9WPC3, whole entry partner: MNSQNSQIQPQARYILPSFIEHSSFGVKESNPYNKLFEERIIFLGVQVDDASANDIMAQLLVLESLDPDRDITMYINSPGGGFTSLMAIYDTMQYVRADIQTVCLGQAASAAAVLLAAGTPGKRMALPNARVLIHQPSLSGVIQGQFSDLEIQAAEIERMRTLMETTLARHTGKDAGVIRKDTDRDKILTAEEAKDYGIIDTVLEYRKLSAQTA
UniProt Q4DA54, 1-478: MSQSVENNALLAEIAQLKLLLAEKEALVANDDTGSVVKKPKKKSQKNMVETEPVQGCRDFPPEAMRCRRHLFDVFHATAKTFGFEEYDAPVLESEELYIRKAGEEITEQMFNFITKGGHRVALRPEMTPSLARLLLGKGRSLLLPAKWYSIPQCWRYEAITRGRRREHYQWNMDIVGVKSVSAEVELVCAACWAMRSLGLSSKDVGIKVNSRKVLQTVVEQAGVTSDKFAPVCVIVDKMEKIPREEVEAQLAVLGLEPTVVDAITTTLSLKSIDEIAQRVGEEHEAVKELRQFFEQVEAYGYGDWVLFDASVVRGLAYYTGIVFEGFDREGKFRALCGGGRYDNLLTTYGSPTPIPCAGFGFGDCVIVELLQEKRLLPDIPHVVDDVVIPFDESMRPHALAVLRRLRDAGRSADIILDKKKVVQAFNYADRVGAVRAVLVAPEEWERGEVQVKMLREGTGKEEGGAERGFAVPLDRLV

PfKRS1: 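Lysine-tRNA ligase, Plasmodium falciparum 3D7 (UniProt Q8IDJ8). Enzyme assay of the cytosolic lysyl-tRNA synthetase in 384-well plates, read by luminescence. Compounds at 30 µM. Higher reads as stronger inhibition, judged from the few compounds that gave an IC50. Size under these conditions: about 69,000 compounds, about 49 of them at 50% or above in at least one test.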
MtTrpRS: 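Enzyme assay of tryptophanyl-tRNA synthetase; the read-out is not stated. Target: Tryptophan-tRNA ligase, Mycobacterium tuberculosis (UniProt P9WFT3). Concentration: 10 µM. Direction is not recorded; retested compounds ran higher, which suggests that high means inhibition. About 65,000 compounds were tested under these conditions; 0.098% (about 64) showed 50% or more at least once.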
ClpP1P2: 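Protease assay of ClpP1P2, read by the AMC dye that it sets free. Target: ClpP1P2, Mycobacterium tuberculosis (UniProt P9WPC5 and UniProt P9WPC3). Tested at 50 µM. Higher reads as stronger inhibition, judged from the few compounds that gave an IC50. Most other retested compounds had strongly negative values. Size under these conditions: about 69,000 compounds, about 10 of them at 50% or above in at least one test.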
TcHisRS: 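Enzyme assay of histidyl-tRNA synthetase; the read-out is not stated. Target: Histidine-tRNA ligase, Trypanosoma cruzi CL Brener (UniProt Q4DA54). Concentration: 30 µM. Direction is inferred from retests: higher values go with stronger inhibition. About 69,000 compounds were tested under these conditions; 0.045% (about 31) showed 50% or more at least once.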

Each number is a percent effect as filed. The record does not define 0% and 100%; most values in the screen are far below 50% and negative numbers occur (in some assays of this library far below -100). The compounds are a random part of those screened. A dash means the value is not listed here; it may have been measured.

SMILES,PfKRS1,MtTrpRS,ClpP1P2,TcHisRS
CN(CCCn1cnc2c(N)ncnc21)Cc1ccccc1,2.118,0.7342,1.377,13
O=C(O)CSc1nnc(-c2cn[nH]c2)n1-c1ccccc1C(F)(F)F,8.158,1.732,-8.064,8.081
N#CCCCOc1cccnc1NC(=O)CCC1CCCC1,8.374,1.273,-17.37,2.232
Cc1csc(CNC(=O)NCC(O)c2ccc(F)cc2F)n1 (centres undefined),2.339,3.086,4.483,6.897
Cc1ccccc1OCCCC(=O)NC(C)c1nnc2n1CCC2 (centres undefined),2.463,3.955,-25.58,11.34
Cc1ccc(N2Cc3cnn(Cc4ccc(F)cc4)c3C2)nn1,0.9343,-1.536,4.25,12.29
CC(C)c1noc(C[S+]([O-])CC(=O)Nc2ccc(F)c(F)c2)n1 (centres undefined),-5.616,6.045,0.2,-2.041
Cc1[nH]nc(CCC(=O)NCC2CCN(C3CCCCC3)C2)c1C (centres undefined),0.4706,1.152,12.29,19.8
Cc1ccc(NC(=O)N2CCC3(CCC(C(=O)N(C)C)O3)CC2)cc1 (centres undefined),3.478,-,-7.345,5.528
CC(C)(N)CNS(=O)(=O)Cc1cccc2cccnc12,0.2142,1.508,-5.591,4.386
CN(CC(O)CO)C(=O)c1coc(COc2cccc(F)c2)n1 (centres undefined),6.149,2.634,8.213,3.261
CN(Cc1ccco1)C(=O)C1CCCc2ccccc21 (centres undefined),1.046,2.082,-4.562,2.632
Cn1nc(C(=O)N2CCCC2)c2c1CN(CC1CCOCC1)C2,0.9935,0.6783,8.927,8.589
O=C(C1CCCO1)N1CCCn2c(nnc2Cn2cccn2)C1 (centres undefined),8.991,-3.776,1.166,3.797
CCn1c(CC2CCN(C(=O)C3CCOC3)CC2)nn(C)c1=O (centres undefined),2.084,6.545,15.4,-4.516
Cc1cccc(C)c1OCC(=O)NC(C)c1nnc2n1CCC2 (centres undefined),-1.777,-1.569,1.892,3.867
CCc1ccccc1NC(=O)C1CN(C(C)=O)C1,-2.68,14.24,4.899,5.556
O=C(Cc1ccc2c(c1)CCC2)NCCNc1cnccn1,-0.2117,0.7661,-39.37,2.89
CS(=O)(=O)N1CC(c2nc(N)ncc2-c2ccc(F)cc2)C1,1.903,-10.85,7.784,13.95
O=C(NCC1CCCCC1)N1C[C@H]2C[C@H](C(=O)N3CCOCC3)[C@@H](C1)O2,-2.329,2.862,-3.841,1.031
COc1ccc(C(=O)NS(=O)(=O)c2cncc(Br)c2)cc1,5.39,10.86,-7.038,-2.051
c1cnc(NCc2noc3c2CN(CCN2CCCC2)CC3)nc1,6.217,0.9444,7.635,1.622
c1nc2c(c(N3CCOC(Cn4cncn4)C3)n1)CCC2 (centres undefined),10.65,4.845,-10.72,5.419
CCSc1ccccc1C(=O)N1CCC(S(=O)(=O)c2nncn2C)CC1,2.863,-6.69,0.3562,2.222
CCN(Cc1ccc(O)c(C(=O)O)c1)CC1CCCO1 (centres undefined),3.066,7.322,16.65,3.004
Cc1ccc(CN(C)C)cc1NC(=O)C1CC1,0.02462,4.541,1.248,3.185
NC(=O)C1CCCN(Cc2ccc(C(=O)Nc3cnns3)cc2)C1 (centres undefined),0.3328,-5.299,2.698,8.04
O=C1NCC(C(=O)NCc2ccccc2CN2CCOCC2)N1 (centres undefined),0.1565,1.125,-7.394,9.392
COc1ccc(CNC(=O)c2ccc(Br)cn2)cc1,-3.353,8.004,1.089,0.5587
COc1cc(C)nc(N2CCN(C(=O)CCc3cccs3)CC2)n1,4.758,-1.331,-14.19,5.155
CS(=O)(=O)Cc1nc(C2CC2)nn1-c1ccccn1,-2.29,-0.3027,-2.59,-1.911
N#Cc1cn(CC(=O)NC2CC2)c2ccc(Br)cc2c1=O,5.695,-2.131,0.2844,6.224
Cc1[nH]c2ccc(C(=O)N3C[C@@H](O)[C@H](N4CCOCC4)C3)cc2c1C,2.45,0.8696,-9.473,2.239
O=C(C1CCC1)N1C[C@@H]2CCN(c3cccnc3)C[C@@H]2C1,-4.371,-0.2766,13.04,-6.098
COc1ccc(S(=O)(=O)N[C@H]2CN(C(C)=O)C[C@@H]2C(C)C)cc1F,1.555,0.7341,-7.667,3.093
CN(C)CC(=O)N1CCC2(CC1)COC(COc1ccccn1)C2 (centres undefined),1.591,0.09588,10.85,2.732
Cc1cc(C)n(CC2CCCN2C(=O)c2cnc3n[nH]c(C)c3c2)n1 (centres undefined),0.0402,0.05679,-27.71,4.274
O=C(C1CCCCO1)N1CCc2ncnc(NCCO)c2CC1 (centres undefined),4.655,-0.07097,-8.122,3.448
O=C(CC1COCCN1)NCCc1nc(Cc2ccccc2)no1 (centres undefined),5.031,-4.721,8.218,-0.5348
Cc1cc(C)n(C2CN(CC(=O)N3CCOCC3)C2)n1,3.92,-1.852,-4.392,13.91
CCN(CC)S(=O)(=O)CCNc1ncnc2cc(F)c(F)cc12,5.716,-3.665,-8.892,4.712
Cc1nccn1-c1cc(CNC(=O)C2CCC(=O)N2)ccn1 (centres undefined),1.199,-1.331,-12.4,7.216

Source: ChEMBL document CHEMBL3988442, “University of Dundee, Small-Polar-MMV Screening Library” (2021).